Assay results as given in PubChem BioAssay AID1347075 (National Center for Advancing Translational Sciences (NCATS), 2019).
Where “and” joins values, the source holds several entries; their conditions need not be identical. Equal entries are not always repeated. About 5,500 (1.4%) of roughly 400,000 compounds were called active. The inconclusive results got no clear call from the source; some entries with a clear call stand among them for comparison. Calls come from the whole dose curve; as a rule, active = well fitted cell-killing curve with a large enough effect; inconclusive = small, poorly fitted or top-dose-only effect, or effect the other way; inactive = flat fitted curve, though single readings scatter. Potencies of inconclusive entries are doubtful fits and often do not repeat.

test: qHTS assay for MDR1-selective chemotherapeutics: Primary screen using the parental adenocarcinoma cell KB-3-1; conditions: KB-3-1 viability, CellTiter-Glo ATP luminescence, 72 h; activity change, negative = cytotoxic: at 46.1 µM (top of the series); note: nearly all actives have a fitted effect of over 60% in size
Summary of the method: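 KB-3-1 parental drug-naive adenocarcinoma cells in DMEM/10% FBS, incubated 72 h at 37 C with pin-transferred compounds across a concentration series. Viability by CellTiter-Glo luminescence; concentration-response curves fitted after normalization.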
% is set by controls: 0 for no effect and ±100 for the full control effect; potency is the fitted concentration of half-maximal effect.

SMILES | Potency | activity change, negative = cytotoxic
C[C@@H]1CN([C@@H](C)CO)C(=O)CCCn2nncc2CO[C@@H]1CN(C)C(=O)Nc1cccc(C(F)(F)F)c1 | inconclusive: 29.1 µM [cytotoxic, single point] | –
Cc1ccc2[nH]c(=O)c(CN(CCCO)Cc3nnnn3Cc3ccco3)cc2c1 | inconclusive: 29.1 µM [rising, single point] | –
CCn1c(CCc2nc3ccccc3[nH]2)n[nH]c1=S | inconclusive: 10.3 µM [rising, partial curve, poor fit] | –
Nc1nn2c(C(F)(F)F)cc(=O)[nH]c2c1N=Nc1cccc(F)c1 | inconclusive: 29.1 µM [rising, single point] | –
COC(=O)c1cccc(NC(=O)CSc2ncn[nH]2)c1 | – | inconclusive: 30%
Cc1c(NC(=O)Nc2ccc(Cl)c(Cl)c2)sc(=S)n1C | inconclusive: 20.6 µM [cytotoxic, single point] | –
CC(C)(C)Cc1nnc(NC(=O)Cc2ccc([N+](=O)[O-])cc2)s1 | – | inactive: 16.3%
CCn1c2ccccc2c2cc(NS(=O)(=O)c3ccc(C)cc3)ccc21 | inconclusive: 29.1 µM [cytotoxic, single point] | –
O=C(CC1N=C2c3ccccc3N=C(SCc3ccccc3F)N2C1=O)NCCc1ccccc1 (centres undefined) | inconclusive: 32.6 µM [cytotoxic, single point] | –
COc1cccc(C(=O)NCc2ccc(-c3nc4ccccc4s3)cc2)c1 | inconclusive: 29.1 µM [cytotoxic, single point] | –
COc1ccc(-c2csc3nc(C)nc(N4CCCCC4)c23)cc1OC | – | inconclusive: -26.1%
Cc1ccsc1CCN1C(=O)N(c2ccccc2)C(=O)C1CC(=O)Nc1ccc(F)cc1 (centres undefined) | active: 23.1 µM | –
Cc1cccc(N2CCN(C(=O)Cn3cccc3C(=O)c3ccccc3)CC2)c1C | inconclusive: 29.1 µM [cytotoxic, single point] | –
COC(=O)c1nn(-c2ccccc2)nc1-c1nn(-c2ccccc2)nc1C(=O)OC | inconclusive: 20.6 µM [cytotoxic, single point] | –
CC(C)(C)NC1=NCCNC(c2ccccc2)=C1 | inconclusive: 18.4 µM [cytotoxic, single point] | –
CCOC(=O)c1ccc(NC(=O)Cn2nc(SC)c(S(=O)(=O)c3ccc(Cl)cc3)c2N)cc1 | inconclusive: 13 µM [cytotoxic, partial curve] | –
c1ccc(CN=C(NCc2ccccc2)NCc2ccccc2)cc1 | inconclusive: 18.4 µM [cytotoxic, single point] | –
CCOc1ccc(-n2c(=S)sc3c(=O)[nH]c(SCC(=O)NCC4CCCO4)nc32)cc1 (centres undefined) | – | inactive: 9.56%
O=C1c2ccccc2NC(c2ccc(-c3ccc(F)cc3)o2)N1O (centres undefined) | inconclusive: 25.9 µM [cytotoxic, single point] | –
COc1cc(CN2CCC(C(=O)NC(c3ccc(F)cc3)c3ccc4ccccc4n3)CC2)cc(OC)c1 (centres undefined) | active: 5.17 µM | –
Cc1ccc2c(c1)N(CC(=O)N1CCCCC1)C(=O)CO2 | inconclusive: 10.3 µM [rising, partial curve] | –
CCCCCCCC(=O)NC(Nc1ccccc1OC)C(Cl)(Cl)Cl (centres undefined) | inconclusive: 18.4 µM [cytotoxic, single point] | –
CSc1sc(C(=O)N2CCc3ccccc32)cc1S(=O)(=O)C(C)C | inconclusive: 1.84 µM [rising, full curve, poor fit] | –

Entries above that have a thiophene ring, fused or not:
SMILES | Potency | activity change, negative = cytotoxic
COc1ccc(-c2csc3nc(C)nc(N4CCCCC4)c23)cc1OC | – | inconclusive: -26.1%
Cc1ccsc1CCN1C(=O)N(c2ccccc2)C(=O)C1CC(=O)Nc1ccc(F)cc1 (centres undefined) | active: 23.1 µM | –
CSc1sc(C(=O)N2CCc3ccccc32)cc1S(=O)(=O)C(C)C | inconclusive: 1.84 µM [rising, full curve, poor fit] | –

Further compounds follow.

SMILES | Potency | activity change, negative = cytotoxic
CCS(=O)(=O)NCCc1csc(-c2ccc(OC)c(OC)c2)n1 | – | inactive: 4.02%
O=C(CN1CCN(CC(=O)Nc2ccc3c(c2)OC2(CCCCC2)O3)CC1)Nc1cccc(F)c1 | – | inactive: -12.7%
COc1ccc(C2CC(c3ccccc3OC(C)=O)=NN2C(=O)/C=C/c2ccccc2)cc1OC (centres undefined) | inconclusive: 18.4 µM [cytotoxic, single point] | –
COc1ccc(/C=N/NC(=S)Nc2c(C)n(C)n(-c3ccccc3)c2=O)cc1OC | inconclusive: 8.2 µM [rising, partial curve] | –
O=[N+]([O-])c1ccc(F)c(CN2CCN(c3ncc(Cc4ccccc4)cn3)CC2)c1 | inconclusive: 20.6 µM [cytotoxic, single point] | –
CCOc1ccc(/C=C2\SC(=S)N(CCC(=O)N(CCO)c3ccccc3)C2=O)cc1 | inconclusive: 29.1 µM [cytotoxic, single point] | –
Cc1ccc(C)c(N2CCN(C(=O)C3CCCCN3S(=O)(=O)c3ccc(F)cc3)CC2)c1 (centres undefined) | inconclusive: 25.9 µM [cytotoxic, single point] | –
CCOC(=O)C1CCN(CC(=O)Nc2cc(S(=O)(=O)N3CCCCC3)ccc2Cl)CC1 | inconclusive: 23.1 µM [cytotoxic, single point] | –
CCCOC(=O)/C(=C\c1ccc([N+](=O)[O-])o1)NC(=O)c1ccccc1 | inconclusive: 23.1 µM [cytotoxic, single point] | –
Cn1nc(C(F)(F)F)c(C(=O)Nc2ccc(F)cc2F)c1Cl | – | inactive: -0.503%
O=C(NCC1CCCO1)c1ccc(-c2cccc(C(F)(F)F)c2)o1 (centres undefined) | inconclusive: 29.1 µM [rising, single point] | –
CSC(=S)N/N=C/c1ccccc1 | – | inactive: 6.03%
COc1ccc2[nH]c(C(=O)N/N=C/c3ccc(OC)c(O)c3)cc2c1 | active: 6.51 µM | –
COc1ccc(CNS(=O)(=O)c2cc3c(cc2C)n(C)c(=O)c(=O)n3C)cc1 | – | inactive: -7.74%
Cc1cc(C)c2nc(N3CCCC(C(=O)NCc4cccc(Cl)c4)C3)sc2c1 (centres undefined) | – | inactive: 6.82%
C[C@@H]1CC=C[C@@H]2[C@H]1C(=O)N(Cc1ccccc1)[C@H]2c1cccc(C#Cc2ccccc2)c1 | inconclusive: 29.1 µM [cytotoxic, single point] | –
CCn1c(-c2csc3ccccc23)n[nH]c1=S | active: 18.4 µM | –
O=c1[nH]c(COc2ccc(Cl)cc2Br)nc2ccccc12 | inconclusive: 20.6 µM [cytotoxic, partial curve, poor fit] | –
Cn1c(N/N=C/c2cc3ccccc3nc2Cl)nc2ccccc21 | inconclusive: 2.31 µM [cytotoxic, full curve] | –
COc1cc(NC(=O)c2cc3ccccc3cc2O)c(OC)cc1Cl | inconclusive: 20.6 µM [cytotoxic, single point] | –
O=C(CSc1nnc(NC(=O)c2cc(Br)ccc2Cl)s1)NCC1CCCO1 (centres undefined) | – | inactive: 8.59%
COc1ccccc1-c1cnc(C(O)c2cccc(CN3CCCCC3)c2)[nH]1 (centres undefined) | – | inactive: 0%
Cc1ccc(O)c(N=NC2=C(O)CC(C)(C)CC2=O)c1 | inconclusive: 14.6 µM [cytotoxic, partial curve] | –

SMILES | Potency | activity change, negative = cytotoxic
NC(=O)c1oc2ccccc2c1NC(=O)c1ccc([N+](=O)[O-])o1 | active: 3.66 µM | –
CN(C)CCn1c(C(=O)Nc2ccccc2)cc2ccccc21 | inconclusive: 23.1 µM [cytotoxic, single point] | –
COc1cccc(N2CC(C(=O)Nc3nnc(SCc4ccccn4)s3)CC2=O)c1 (centres undefined) | inconclusive: 1.46 µM [rising, full curve] | –
COc1cccc(N2CN(CCc3ccccc3)CNC2=S)c1 | – | inactive: -8.14%
O=C(c1cccs1)c1no[n+]([O-])c1C(=O)c1cccs1 | inconclusive: 29.1 µM [cytotoxic, single point] | –
CC(C)N(C(=O)COc1ccc(Br)cc1Cl)C(C)C | – | inactive: 10.5%
O=C(NC1CCCC1)C(c1ccncc1)N(CC1CCCO1)C(=O)Cn1nnc(-c2cccs2)n1 (centres undefined) | inconclusive: 5.8 µM [rising, partial curve] | –
COc1cc([N+](=O)[O-])ccc1NC(=O)CCCOc1cc(C)ccc1C | – | inactive: 14.7%
Cc1ccc(-c2nc(CS(=O)(=O)CC(=O)NCCCN(Cc3ccccc3)C(C)C)c(C)o2)cc1 | – | inactive: -3.36%
CC(C)(C)OC(=O)NCCCCCNC(=O)c1nc[nH]c1C(=O)NCCCCCNC(=O)OC(C)(C)C | inconclusive: 29.1 µM [cytotoxic, single point] | –
O=C(COC(=O)/C=C/c1ccc([N+](=O)[O-])cc1)NCc1cccs1 | inconclusive: 18.4 µM [rising, partial curve, poor fit] | –
CC1CN(S(=O)(=O)c2cccc(C(=O)NNC(=O)C(C)Oc3ccccc3F)c2)CC(C)O1 (centres undefined) | inconclusive: 25.9 µM [rising, single point] | –
COc1ccc(C(=O)NNC(=O)C2CCCO2)cc1 (centres undefined) | – | inactive: -2.42%
Cc1ccc(Cn2c(Sc3ncccn3)nc3c2c(=O)[nH]c(=O)n3C)cc1 | inconclusive: 20.6 µM [cytotoxic, single point] | –
O=C(Nc1ccc2c(c1)CCCN2C(=O)c1cccs1)c1ccccc1 | inconclusive: 16.4 µM [cytotoxic, partial curve] and inconclusive: 20.6 µM [cytotoxic, single point] | –
O=C(Nc1cccc(Cl)c1)c1ccccc1 | – | inactive: 1.74%
CC(C)C1N=C2c3ccccc3N=C(SCC(=O)NCc3ccc(Cl)cc3)N2C1=O (centres undefined) | – | inactive: 5.19%
CCN1CCN(Cc2ccc(NC(=O)c3ccc(C)c(NC(=O)c4cc(-c5ccc(Br)cc5)n[nH]4)c3)cc2C(F)(F)F)CC1 | inconclusive: 25.9 µM [cytotoxic, partial curve, poor fit] | –
COc1ccccc1CNC(=O)CCCN1C(=O)CSc2c1c(C)nn2-c1ccccc1 | – | inactive: -14.3%
COc1cc(-c2nnc(-c3ccncc3)o2)ccc1OCc1ccccc1 | – | inactive: 5.33%
Cc1c(C(=O)C(=O)N2c3ccc(F)cc3CCC2C)c2ccccc2n1C (centres undefined) | active: 2.91 µM | –
COc1ccc(CCNC(=O)C(C)SCC(=O)Nc2ccc(F)cc2)cc1 (centres undefined) | inconclusive: 2.31 µM [rising, full curve, poor fit] | –
Cc1cc(N/N=C/c2ccncc2)nc2ccccc12 | inconclusive: 18.4 µM [cytotoxic, single point] | –
